Experimental data as given in patent publication US9393288B2, “Methods of treating diseases associated with PPARγ” (The University of Vermont and State Agricultural College, priority 2012, dated 2016).
At least one structure is not confirmed: it was looked up by name or label, or the drawing left a doubt.

Test: Conscious blood pressure, non-invasive tail-cuff method, SHR
Format: in vivo, rat
Conditions: SHR co-treated with relaxin and axitinib
Method: Systemic blood pressures were determined in all groups of animals using a non-invasive tail-cuff method (Chan, S. L., and Cipolla, M. J. (2011) Relaxin causes selective outward remodeling of brain parenchymal arterioles via activation of peroxisome proliferator-activated receptor-gamma. FASEB J 25, 3229-3239). For untreated WKY-F and SHR-F groups, blood pressures were measured on the day the animals were euthanized. For relaxin treated groups, blood pressures were measured on day 0 (baseline, before pump implant), 2, 7 and 14. All animals were trained for 3 days before actual blood pressure measurements were taken.

CNC(=O)c1ccccc1Sc1ccc2c(/C=C/c3ccccn3)n[nH]c2c1 [axitinib, reference compound]
Blood pressure: did not alter
